Experiment [1] deals with T1, 2×Strep-Gid4_(1-358aa) (with C terminal 359-362 aa deleted) (S. cerevisiae) (UniProt P38263).
T1 sequence: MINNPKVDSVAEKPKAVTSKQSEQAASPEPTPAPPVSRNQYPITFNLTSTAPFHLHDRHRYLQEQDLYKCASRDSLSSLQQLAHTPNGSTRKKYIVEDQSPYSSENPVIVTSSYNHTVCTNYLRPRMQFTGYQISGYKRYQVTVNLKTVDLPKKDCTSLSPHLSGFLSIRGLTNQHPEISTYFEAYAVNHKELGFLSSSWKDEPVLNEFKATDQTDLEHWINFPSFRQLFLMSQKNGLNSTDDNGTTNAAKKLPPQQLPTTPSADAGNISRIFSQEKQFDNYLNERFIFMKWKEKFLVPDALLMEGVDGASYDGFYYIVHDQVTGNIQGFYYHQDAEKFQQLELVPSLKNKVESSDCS
As to the kind of experiment: pull-down; 0.5 µM purified GID^SR4 or Gid12 bound GID^SR4 (Gid8-3×FLAG, untagged Gid4) mixed with 0-2.5 µM 2×Strep-Gid4 or 4 µM 2×Strep-Gid4^mut, 20 min at room temperature; Strep-Tactin resin at 4 °C; 25 mM HEPES pH 7.5, 150 mM NaCl, 1 mM DTT; SDS-PAGE, Coomassie; both purified.

Sequences of proteins named here, by UniProt entry; tags and fusion partners are left off. A change or cut given only in a name is not applied to a line headed by its entry.
UniProt Q12027: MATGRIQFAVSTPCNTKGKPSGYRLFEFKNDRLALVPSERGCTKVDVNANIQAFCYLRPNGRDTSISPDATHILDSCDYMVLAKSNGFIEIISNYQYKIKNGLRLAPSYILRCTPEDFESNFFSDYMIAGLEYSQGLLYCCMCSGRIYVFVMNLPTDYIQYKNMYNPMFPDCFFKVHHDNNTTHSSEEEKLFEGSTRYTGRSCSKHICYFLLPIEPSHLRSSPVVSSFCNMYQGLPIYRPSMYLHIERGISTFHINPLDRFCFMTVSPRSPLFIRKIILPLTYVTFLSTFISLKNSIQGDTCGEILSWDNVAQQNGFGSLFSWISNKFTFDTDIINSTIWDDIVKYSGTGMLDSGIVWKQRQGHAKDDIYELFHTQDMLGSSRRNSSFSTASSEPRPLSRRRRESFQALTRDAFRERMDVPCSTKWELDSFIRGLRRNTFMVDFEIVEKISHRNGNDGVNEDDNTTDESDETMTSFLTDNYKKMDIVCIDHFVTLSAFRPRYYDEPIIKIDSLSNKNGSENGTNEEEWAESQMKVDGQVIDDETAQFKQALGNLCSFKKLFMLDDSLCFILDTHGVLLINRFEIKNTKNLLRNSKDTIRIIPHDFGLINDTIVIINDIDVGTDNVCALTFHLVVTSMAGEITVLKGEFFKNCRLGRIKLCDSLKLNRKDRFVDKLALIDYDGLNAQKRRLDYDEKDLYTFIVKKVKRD

Experiment [2] addresses T2, 2×Strep-Gid4 (S. cerevisiae) (UniProt P38263).
T2 sequence: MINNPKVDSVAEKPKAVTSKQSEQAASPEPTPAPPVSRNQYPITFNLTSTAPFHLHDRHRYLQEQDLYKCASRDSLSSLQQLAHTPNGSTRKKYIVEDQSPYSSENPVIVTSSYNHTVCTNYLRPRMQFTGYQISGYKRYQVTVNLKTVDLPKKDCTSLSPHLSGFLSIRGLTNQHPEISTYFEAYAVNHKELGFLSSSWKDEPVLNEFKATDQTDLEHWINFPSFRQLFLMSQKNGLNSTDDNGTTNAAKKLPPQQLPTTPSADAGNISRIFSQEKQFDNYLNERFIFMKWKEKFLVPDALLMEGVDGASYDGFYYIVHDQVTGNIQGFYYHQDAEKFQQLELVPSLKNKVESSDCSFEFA
The experiment is described as above.

Experiment [3] has as its target T3, Strep-Gid5 (N-terminal Twin-Strep-tagged Gid5) (S. cerevisiae) (UniProt P40547).
T3 sequence: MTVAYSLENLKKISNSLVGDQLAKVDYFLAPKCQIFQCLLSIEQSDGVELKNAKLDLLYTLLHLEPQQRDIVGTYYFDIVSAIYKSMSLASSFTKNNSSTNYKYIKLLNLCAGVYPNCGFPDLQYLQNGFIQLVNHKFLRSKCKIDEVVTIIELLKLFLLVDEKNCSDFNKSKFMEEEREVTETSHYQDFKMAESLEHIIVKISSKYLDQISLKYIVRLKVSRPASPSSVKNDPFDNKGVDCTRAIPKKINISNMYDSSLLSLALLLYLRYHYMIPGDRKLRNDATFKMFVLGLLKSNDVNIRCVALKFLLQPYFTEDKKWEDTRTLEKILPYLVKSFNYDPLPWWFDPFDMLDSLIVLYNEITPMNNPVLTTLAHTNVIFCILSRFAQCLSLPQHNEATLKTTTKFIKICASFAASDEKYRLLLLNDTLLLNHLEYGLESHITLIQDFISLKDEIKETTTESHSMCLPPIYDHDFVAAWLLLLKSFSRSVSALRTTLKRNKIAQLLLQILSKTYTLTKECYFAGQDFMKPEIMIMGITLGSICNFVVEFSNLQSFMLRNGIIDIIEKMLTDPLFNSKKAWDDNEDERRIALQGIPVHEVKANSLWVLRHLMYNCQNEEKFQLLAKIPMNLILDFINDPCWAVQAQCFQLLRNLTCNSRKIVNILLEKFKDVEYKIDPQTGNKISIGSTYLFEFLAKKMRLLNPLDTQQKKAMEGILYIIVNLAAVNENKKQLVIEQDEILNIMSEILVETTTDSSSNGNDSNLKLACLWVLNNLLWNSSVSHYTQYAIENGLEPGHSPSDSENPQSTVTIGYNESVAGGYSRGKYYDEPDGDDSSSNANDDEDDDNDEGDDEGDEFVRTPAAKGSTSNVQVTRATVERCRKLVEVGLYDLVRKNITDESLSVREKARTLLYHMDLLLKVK
Briefly: pull-down; Hi5 insect cells co-infected with baculoviruses for all GID subunits, Gid12 and Moh1 or all but one; pulldown of GST-Gid1, Twin-Strep-Gid5 or Twin-Strep-Gid1 from lysate; 50 mM Tris-HCl pH 8.0, 200 mM NaCl, 5 mM DTT; SDS-PAGE, Coomassie.

The target of experiment [4] is T4, 2×Strep-Gid1 (Twin-Strep tag fused at the N-terminus of Gid1) (S. cerevisiae) (UniProt P53076).
T4 sequence: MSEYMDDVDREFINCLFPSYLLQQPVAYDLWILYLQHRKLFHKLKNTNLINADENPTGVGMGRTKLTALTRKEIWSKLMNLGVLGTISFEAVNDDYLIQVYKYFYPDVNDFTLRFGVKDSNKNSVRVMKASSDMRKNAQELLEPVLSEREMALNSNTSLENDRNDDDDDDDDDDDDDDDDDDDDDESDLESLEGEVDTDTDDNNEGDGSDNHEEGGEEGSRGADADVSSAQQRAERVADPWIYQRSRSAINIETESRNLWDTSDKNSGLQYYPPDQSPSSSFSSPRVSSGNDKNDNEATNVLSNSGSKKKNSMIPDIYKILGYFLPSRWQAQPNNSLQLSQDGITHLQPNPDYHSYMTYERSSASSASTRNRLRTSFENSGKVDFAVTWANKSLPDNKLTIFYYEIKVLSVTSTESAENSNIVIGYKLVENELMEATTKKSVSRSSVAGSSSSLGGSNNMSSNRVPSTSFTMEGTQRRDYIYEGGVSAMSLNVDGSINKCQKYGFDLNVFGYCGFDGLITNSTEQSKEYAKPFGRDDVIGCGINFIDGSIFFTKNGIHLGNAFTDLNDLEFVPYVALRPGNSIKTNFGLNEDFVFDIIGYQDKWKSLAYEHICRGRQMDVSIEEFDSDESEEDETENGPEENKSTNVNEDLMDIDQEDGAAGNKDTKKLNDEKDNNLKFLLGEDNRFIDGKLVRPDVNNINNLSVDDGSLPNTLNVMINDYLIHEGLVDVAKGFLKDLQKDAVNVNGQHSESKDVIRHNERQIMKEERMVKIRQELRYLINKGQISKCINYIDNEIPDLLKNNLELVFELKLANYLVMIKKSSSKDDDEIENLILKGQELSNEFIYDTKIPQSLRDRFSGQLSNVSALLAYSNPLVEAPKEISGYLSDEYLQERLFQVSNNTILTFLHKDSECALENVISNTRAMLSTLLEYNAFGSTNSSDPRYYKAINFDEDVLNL
Briefly: cryo-EM structure; Gid12-SRS (Gid12-Gid4-Gid5-Gid1-Gid8) co-expressed in Hi5 cells and purified as a complex; 3.3 Å; 25 mM MES pH 6.5, 150 mM NaCl, 1 mM DTT; both purified.

Experiment [5] addresses T5, Gid5 (recombinant, untagged, co-expressed) (S. cerevisiae) (UniProt P40547).
T5 sequence: T3 sequence
The experiment is described as above.

Experiment [6] addresses T4, 2×Strep-Gid1 (Twin-Strep tag fused at the N-terminus of Gid1) (S. cerevisiae). Briefly: pull-down; Hi5 insect cells co-expressing combinations of 2×Strep-Gid1, Gid8, Gid5, Gid4 and Gid10 (with Gid12); Strep-Tactin pulldown on Gid1, 4 °C; 50 mM Tris/HCl pH 7.5, 200 mM NaCl, 5 mM DTT; SDS-PAGE.
Experiment [7] concerns the target T6, Gid1 (recombinant, untagged, in Chelator/Cage GID^SR4) (S. cerevisiae) (UniProt P53076).
T6 sequence: T4 sequence
As to the kind of experiment: cryo-EM structure; Cage-GID^SR4 prepared without Gid12, co-expressed in Hi5 cells and purified; 19.8 Å map fitted with three Chelator-GID^SR4 models; both purified.

For five molecules, binding results are on record in article PMC9160049, “Cryo-EM structures of Gid12-bound GID E3 reveal steric blockade as a mechanism inhibiting substrate ubiquitylation” (Nature Communications, 2022).

No constants are given. Whether binding was seen depends on the method and setting. For some assays here: Binding seen in cells or lysates may run through a third protein. Some results given as binding are weak or reduced against the parent protein; the word gives no strength. For some assays here: Sequences can lack the tags named with a protein.

For the molecule “Gid12 bound GID^SR4 complex with 3×FLAG at the C-terminus of Gid8 (from UniProt Q12027 1-708; P53076 1-958; Q12508 1-421; P38263 1-362; P40547 1-921; P40208 1-455; P40492 1-516)”, in experiment [1], the binding entry was “no binding (tested: 4 µM)”.

As for “GID^SR4 complex with 3×FLAG at the C-terminus of Gid8 (untagged Gid4) (from UniProt P53076 1-958; Q12508 1-421; P38263 1-362; P40547 1-921; P40208 1-455; P40492 1-516)”, the results for the binding result in experiment [2] and in experiment [1] were “binds” and “no binding (tested: 4 µM)”, respectively.

B1: Gid4 (recombinant, untagged, co-expressed) (protein, UniProt P38263 1-362)
chain: T2 sequence
As for B1, the binding result in experiment [3], in experiment [4] and in experiment [5] was “binds” in each case.

B2: Gid10 (protein, UniProt P53242 1-292)
chain: MTSLNIMGRKFILERAKRNDNIEEIYTSAYVSLPSSTDTRLPHFKAKEEDCDVYEEGTNLVGKNAKYTYRSLGRHLDFLRPGLRFGGSQSSKYTYYTVEVKIDTVNLPLYKDSRSLDPHVTGTFTIKNLTPVLDKVVTLFEGYVINYNQFPLCSLHWPAEETLDPYMAQRESDCSHWKRFGHFGSDNWSLTERNFGQYNHESAEFMNQRYIYLKWKERFLLDDEEQENLMLDDNHHLEGASFEGFYYVCLDQLTGSVEGYYYHPACELFQKLELVPTNCDALNTYSSGFEIA
For B2, in experiment [6], the binding result is listed as “binds”.

B3: Gid7 (recombinant, untagged, in Chelator/Cage GID^SR4) (protein, UniProt P25569 1-745)
chain: MSHTNKIAYVLNNDTEETASPSSVGCFDKKQLTKLLIHTLKELGYDSAANQLLLESGGYQNESNHIQTFFKLIKTGQFHLINWQIVCSLPLAHSSPLRSEWLQRLLIPTPTPATTSLFDHMLLQLQYLQQLMSSVNSSTCSDAEIATLRNYVEIMILVNRQIFLEFFHPVTNSASHKGPHTALPVLYLRKILKNFIEIWDSLLVSNDQFLNEENIFNPETTLRELSTYLTNPKLTAQLNLERDHLIDAISKYIDPNELVPKGRLLHLLKQAIKYQQSQDIFNIIDPDDDASFSSPPHRINLLQDNFSHDLTVTFQEWKTIQDTTDEIWFLTFSPNGKYLASATSESSRGYFITVYDVEQDFKIYKTCVSLSQSVLYLMFSPDSRYLVACPFSEDVTIYDMNATSLPDASATDSFLLYPSTRLSPMDSFKLDTTTYPDDTESSASSSSRPANANSNQSRVWCCDAFHTAERAGWMVVGSPDREAIVHSLTTKESLFSLKGRTCIALGHDENISGRKSIDPAKVLYKPTSSNGNWQYVEDDETFPRVHDVKISYDDKYVLLMTHQGVIDVYDFSGFPSKEELSKQTVDPKNFLIPRIARLDVGKNMTCISLPLNTTHQGFHRQQISESQHLVLVSLQDNELQMWDYKENILIQKYFGQKQQHFIIRSCFAYGNKLVMSGSEDGKIYIWDRIRGNLVSVLSGHSTVMSNSTKPMGKNCNVVASNPADKEMFASGGDDGKIKIWKISRN
In the case of B3, the binding entry in experiment [7] is “binds”.
